No constants are given. Whether binding was seen depends on the method and setting. Some entries that bind do so weakly or less than the wild type.
What was measured:
[1] = biological target: HER3 on the plasma membrane of SK-BR-3 and BT-474 breast cancer cells (human) (UniProt P21860); test: flow cytometry on SK-BR-3 and BT-474 cells, 50 nM labeled antibody
[2] = biological target: HER3 on the plasma membrane of SK-BR-3 and BT-474 breast cancer cells (human) (UniProt P21860); test: fluorescence microscopy of SK-BR-3 cells pulsed with 50 nM antibody for 5 min at 37 C and chased 0, 10 or 20 min; detection with Alexa 555 anti-human IgG, co-stain EEA-1
[3] = biological target: recombinant HER3 (immobilized) (UniProt P21860); test: SPR (BIAcore), antigen immobilized; data not shown
[4] = biological target: HER3 on the plasma membrane of SK-BR-3 and BT-474 breast cancer cells (human) (UniProt P21860); test: flow cytometry, 50 nM Alexa 647-labeled Ab6 on SK-BR-3 and BT-474 cells after 24 h medium, DMSO or 1 uM lapatinib; single concentration
[5] = biological target: HER3 on the plasma membrane of SK-BR-3 and BT-474 breast cancer cells (human) (UniProt P21860); test: fluorescence microscopy of SK-BR-3 cells treated with 50 nM antibody for 15 min at 37 C and chased 45 min; detection with Alexa 555 anti-human IgG, co-stain LAMP-1

Sequences of proteins named here, by UniProt entry; tags and fusion partners are left off. A change or cut given only in a name is not applied to a line headed by its entry. Residues count along the entry.
UniProt P21860: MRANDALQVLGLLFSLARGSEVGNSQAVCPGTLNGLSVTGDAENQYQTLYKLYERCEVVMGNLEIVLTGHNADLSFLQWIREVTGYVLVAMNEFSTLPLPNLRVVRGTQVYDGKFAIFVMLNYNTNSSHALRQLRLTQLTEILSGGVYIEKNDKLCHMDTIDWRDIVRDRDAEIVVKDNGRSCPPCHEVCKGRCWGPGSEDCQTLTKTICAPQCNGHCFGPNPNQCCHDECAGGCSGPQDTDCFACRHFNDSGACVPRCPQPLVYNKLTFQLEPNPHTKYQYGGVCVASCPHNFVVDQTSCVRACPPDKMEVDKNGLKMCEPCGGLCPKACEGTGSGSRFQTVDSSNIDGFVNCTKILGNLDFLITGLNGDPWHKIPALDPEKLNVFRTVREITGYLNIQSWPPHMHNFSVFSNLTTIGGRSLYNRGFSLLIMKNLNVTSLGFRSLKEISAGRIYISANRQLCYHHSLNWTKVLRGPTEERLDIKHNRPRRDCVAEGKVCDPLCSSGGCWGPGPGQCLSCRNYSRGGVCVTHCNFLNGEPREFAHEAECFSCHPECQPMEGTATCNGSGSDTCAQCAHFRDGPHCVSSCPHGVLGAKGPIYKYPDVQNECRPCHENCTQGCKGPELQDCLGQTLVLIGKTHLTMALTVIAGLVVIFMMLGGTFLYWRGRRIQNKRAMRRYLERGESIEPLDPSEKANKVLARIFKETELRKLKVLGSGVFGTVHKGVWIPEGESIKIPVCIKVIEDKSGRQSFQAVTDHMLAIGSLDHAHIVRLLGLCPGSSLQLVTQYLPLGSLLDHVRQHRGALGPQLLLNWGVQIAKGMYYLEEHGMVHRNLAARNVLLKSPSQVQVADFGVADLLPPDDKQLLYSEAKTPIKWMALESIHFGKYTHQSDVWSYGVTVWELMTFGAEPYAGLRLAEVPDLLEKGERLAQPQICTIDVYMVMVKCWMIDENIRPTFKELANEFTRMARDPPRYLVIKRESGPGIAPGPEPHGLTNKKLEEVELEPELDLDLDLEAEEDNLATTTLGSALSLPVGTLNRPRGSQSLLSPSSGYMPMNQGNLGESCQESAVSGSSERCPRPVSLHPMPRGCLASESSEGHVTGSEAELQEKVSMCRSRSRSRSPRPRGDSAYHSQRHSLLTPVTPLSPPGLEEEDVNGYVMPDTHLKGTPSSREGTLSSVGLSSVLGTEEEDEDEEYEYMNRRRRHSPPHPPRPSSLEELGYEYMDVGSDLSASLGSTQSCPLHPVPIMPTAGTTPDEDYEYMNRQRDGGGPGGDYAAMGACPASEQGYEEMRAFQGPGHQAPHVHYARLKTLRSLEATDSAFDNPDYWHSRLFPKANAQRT
HER3 on the plasma membrane of SK-BR-3 and BT-474 breast cancer cells: residues 20-1342 of P21860
recombinant HER3 (immobilized): residues 20-643 of P21860

Measured: binding

B1: anti-HER3 antibody Ab6 (antibody, human IgG1, V domains shown)
VH: QVQLLESGGGLVQPGGSLRLSCAASGFTFSHYVMAWVRQAPGKGLEWVSSISSSGGWTLYADSVKGRFTISRDNSKNTLYLQMNSLRAEDTAVYYCTRGLKMATIFDYWGQGTLVTVSS
VL: DIQLTQPASVSGSPGQSITISCTGTSSDVGSYNVVSWYQQHPGKAPKLIIYEVSQRPSGVSNRFSGSKSGNTASLTISGLQTEDEADYYCCSYAGSSIFVIFGGGTKVTVL
binds: all assays above

— US20160229920A1
